Laboratory results from PubChem BioAssay AID1347076 (National Center for Advancing Translational Sciences (NCATS), 2019).
In all, about 400,000 compounds went through this assay and about 13,000 (3.2%) were called active. The shares of active, inactive and inconclusive entries below differ from those in the screen. Calls follow the shape of the dose curve; as a rule, active = well fitted cell-killing curve with a large enough effect; inconclusive = small, poorly fitted or top-dose-only effect, or effect the other way; inactive = flat fitted curve, though single readings scatter. Where the call is inconclusive, the potency comes from a doubtful curve fit.

test: qHTS assay for MDR1-selective chemotherapeutics: Primary screen using the drug-selected MDR subline cells KB-V1; settings: KB-V1 MDR cells viability, CellTiter-Glo, 72 h; series mostly up to 46.1 µM; also: nearly all actives have a fitted effect of over 60% in size
Summary of the method: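 qHTS viability screen in drug-selected KB-V1 MDR cells: 72 h compound treatment at 37 degrees C, ATP luminescence end point.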
Potency is read from the fitted curve at half-maximal effect.

SMILES | Potency
O=C(Nc1cc(Cl)cc(Cl)c1)c1cc(S(=O)(=O)NC2CCCC2)ccc1F | inconclusive: 23.1 µM [cytotoxic, partial curve, poor fit]
Clc1cccc(CNc2nc(-c3cccnc3)nc3ccccc23)c1 | inconclusive: 18.4 µM [cytotoxic, single point]
N#Cc1nc(-c2cccc(Cl)c2)oc1NCc1cccnc1 | inconclusive: 18.4 µM [cytotoxic, partial curve]
CC(=O)Nc1ccc(S(=O)(=O)NC(C)(C#N)C2CC2)cc1 (stereo not given) | inactive
CCOc1ccc(-c2cnc3n2CCCCC3)cc1 | inconclusive: 14.6 µM [cytotoxic, partial curve]
N/N=C(/Cc1nc2ccccc2[nH]1)c1ccc([N+](=O)[O-])cc1 | inconclusive: 23.1 µM [cytotoxic, single point]
COc1cc(SC#N)ccc1N=Cc1c(C)[nH]n(-c2ccc(C)c(C)c2)c1=O | inconclusive: 18.4 µM [cytotoxic, partial curve]
COc1ccc(-c2cc(C(F)(F)F)nc(N3CCCCC3)n2)cc1OC | inconclusive: 23.1 µM [cytotoxic, single point]
O=S(=O)(c1ccc(F)cc1)N1CCN(CC(O)COCc2ccccc2)CC1 (stereo not given) | active: 20.6 µM
COc1ccc(-n2c(=O)c(CCC(=O)NCCc3ccccc3F)nc3ccccc32)cc1 | inactive
NC(=O)C1CCN(c2ncc(-c3cccc(N4CCCC4)c3)s2)CC1 | inconclusive: 29.1 µM [rising, single point]
O=C(NCC1CCCO1)c1cccc(Oc2ccc([N+](=O)[O-])cc2)c1 (stereo not given) | inconclusive: 6.51 µM [cytotoxic, partial curve]
COc1ccc(C(C(=O)NC2CCCC2)N(C(=O)c2ccco2)c2cc3c(cc2C(C)=O)OCO3)cc1OC (stereo not given) | inactive
COc1cccc(-c2c(C(=O)N/N=C/c3ccc(C)o3)nnn2-c2nonc2N)c1 | inconclusive: 32.6 µM [rising, single point]
Cn1cc(S(=O)(=O)N2CCc3ccccc32)cc1C(=O)Nc1ccc(Cl)cc1 | inconclusive: 29.1 µM [cytotoxic, single point]
COc1ccc(NC(=O)c2ccc(NC(=O)CN3CCN(c4ccccc4O)CC3)cc2)cc1 | inconclusive: 11.6 µM [cytotoxic, partial curve]
COc1ccc(C(=O)NCC(=O)N/N=C/c2ccc(C)o2)cc1OC | inconclusive: 18.4 µM [rising, partial curve, poor fit]
CN1C(=O)c2cccc3c(S(=O)(=O)Nc4cccc(C(=O)O)c4)ccc1c23 | inactive
CCOc1ccc(NC(=O)c2cc(SC)ccc2Cl)cc1 | inconclusive: 18.4 µM [cytotoxic, single point]
COc1ccc(NC(=O)C2CCCO2)cc1 (stereo not given) | inactive
COc1ccc(NS(=O)(=O)c2ccc(N3CCOCC3)c(N)c2)cc1 | active: 18.4 µM
COc1ccc(C(O)c2nc(-c3cc4ccccc4o3)cs2)cc1 (stereo not given) | inconclusive: 20.6 µM [cytotoxic, partial curve, poor fit]
c1ccc(-c2noc(-c3cccc4ccccc34)n2)nc1 | inconclusive: 29.1 µM [cytotoxic, single point]

SMILES | Potency
O=C(Cc1ccccc1[N+](=O)[O-])Nc1cccc(S(=O)(=O)NC2=NCCCCC2)c1 | inactive
COc1ccccc1NC(=O)C(C)OC(=O)Cc1ccsc1 (stereo not given) | inactive
COc1ccc(Nc2nc(-c3ccccc3)nc3ccccc23)cc1S(=O)(=O)N1CCOCC1 | inconclusive: 3.66 µM [cytotoxic, full curve]
C/C(=N\Nc1ccc([N+](=O)[O-])cc1)c1ccc(-n2nncc2C)cc1 | inconclusive: 20.6 µM [cytotoxic, partial curve]
COc1cc(F)ccc1-c1cc(C(=O)NCc2cccc(Cl)c2)[nH]n1 | inactive
Cc1onc(-c2ccccc2Cl)c1C(=O)N/N=C(\N)COc1ccc(Cl)cc1 | active: 14.6 µM
CCCCNCCS(=O)(=O)NCc1ccc(OC)cc1 | inactive
CCN1C(=O)[C@H]2[C@H]3CN=C(SCc4ccc(C#N)cc4)N3[C@@](C)(C(=O)OC)[C@H]2C1=O | inconclusive: 29.1 µM [rising, single point]
O=C(Nc1cc(-c2ccccc2)nn1C1CCCCC1)c1ccc(Cl)cc1 | inconclusive: 20.6 µM [cytotoxic, single point]
CN(Cc1cccs1)C(=O)c1ccc(S(=O)(=O)NCc2ccco2)cc1 | inconclusive: 20.6 µM [cytotoxic, partial curve]
CCOc1ccc(CCNC(=O)c2cnc3c(-c4ccc(F)cc4)c(C)nn3c2C)cc1 | inactive
CCOCCCNS(=O)(=O)c1ccc(NC(=O)c2ccc([N+](=O)[O-])cc2Cl)cc1 | inconclusive: 20.6 µM [cytotoxic, single point]
O=C(NCc1ccccc1)C(c1ccccc1)N(Cc1cccs1)C(=O)c1cnccn1 (stereo not given) | active: 23.1 µM
O=C(COC(=O)c1ccc2ncsc2c1)NC(=O)C1CCCCC1 | inactive
CCCOc1ccc2c(=O)c(-c3cc(C(=O)OC)oc3C)c(C)oc2c1 | inconclusive: 14.6 µM [cytotoxic, partial curve]
CC(Nc1ccc(F)cc1)=[N+](C)CCNS(=O)(=O)c1ccc(Cl)cc1 | inconclusive: 0.0058 µM [cytotoxic, full curve, poor fit]
C=CCc1ccc(OCCn2cccc2C=O)c(OC)c1 | inactive
Cc1c(C(=O)N(Cc2ccc(Cl)cc2)C2CCS(=O)(=O)C2)oc2ccccc12 (stereo not given) | active: 8.2 µM
CCCCCc1cc(=O)oc2c(C(CCN(CC)CC)c3ccc(OC)cc3)c(OC)cc(OC)c12 (stereo not given) | inconclusive: 29.1 µM [cytotoxic, single point]
O=C(Nc1cccc(C(=O)N2CCN(c3ccc(F)cc3)CC2)c1)c1ccccc1 | inconclusive: 20.6 µM [cytotoxic, single point]
CCSC1=N/C(=C\C=C2/Oc3ccccc3N2CC)C(=O)S1 | inactive
Cc1cccc(/C=C/C(=O)c2ccc(NC3=NCCCS3)cc2)c1 | inconclusive: 29.1 µM [cytotoxic, single point]

Some values from above:
Under Potency, CCCCNCCS(=O)(=O)NCc1ccc(OC)cc1 shows inactive
Under Potency, O=C(NCc1ccccc1)C(c1ccccc1)N(Cc1cccs1)C(=O)c1cnccn1 (stereo not given) shows active: 23.1 µM
Under Potency, COc1ccc(Nc2nc(-c3ccccc3)nc3ccccc23)cc1S(=O)(=O)N1CCOCC1 shows inconclusive: 3.66 µM [cytotoxic, full curve]
